The list shows a part of the results.
Key:
Assay in all cases: log2 fold change, soluble protein after heating vs DMSO (PISA); higher = thermal stabilisation; K562 lysate, 10 uM; active = over 0.2 and 3.5 SD of the protein, either way, in both replicates (recomputed)
lapatinib = compound: CS(=O)(=O)CCNCc1ccc(-c2ccc3ncnc(Nc4ccc(OCc5cccc(F)c5)c(Cl)c4)c3c2)o1 [lapatinib]
How it was run: (§1)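 Dounce homogenisation of K562 pellets in PBS pH 7.4 with 1 mM MgCl2 produced a crude extract, used at 1 mg/mL protein. Exposure to 10 μM compound lasted 30 min, and aliquots were then heated for 3 min across 48°C-58°C, pooled and brought to 0.5% NP-40 at 4°C. The supernatant after 21,000xg for 90 min was quantified by TMTpro 16plex LC-MS/MS with channel sums equalised. Duplicate values are given as log-two fold change in thermal stability relative to solvent controls.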

Amino acid sequences for entries named in this document (tags omitted). A change or cut given only in a name is not applied to a line headed by its entry.
UniProt P57740: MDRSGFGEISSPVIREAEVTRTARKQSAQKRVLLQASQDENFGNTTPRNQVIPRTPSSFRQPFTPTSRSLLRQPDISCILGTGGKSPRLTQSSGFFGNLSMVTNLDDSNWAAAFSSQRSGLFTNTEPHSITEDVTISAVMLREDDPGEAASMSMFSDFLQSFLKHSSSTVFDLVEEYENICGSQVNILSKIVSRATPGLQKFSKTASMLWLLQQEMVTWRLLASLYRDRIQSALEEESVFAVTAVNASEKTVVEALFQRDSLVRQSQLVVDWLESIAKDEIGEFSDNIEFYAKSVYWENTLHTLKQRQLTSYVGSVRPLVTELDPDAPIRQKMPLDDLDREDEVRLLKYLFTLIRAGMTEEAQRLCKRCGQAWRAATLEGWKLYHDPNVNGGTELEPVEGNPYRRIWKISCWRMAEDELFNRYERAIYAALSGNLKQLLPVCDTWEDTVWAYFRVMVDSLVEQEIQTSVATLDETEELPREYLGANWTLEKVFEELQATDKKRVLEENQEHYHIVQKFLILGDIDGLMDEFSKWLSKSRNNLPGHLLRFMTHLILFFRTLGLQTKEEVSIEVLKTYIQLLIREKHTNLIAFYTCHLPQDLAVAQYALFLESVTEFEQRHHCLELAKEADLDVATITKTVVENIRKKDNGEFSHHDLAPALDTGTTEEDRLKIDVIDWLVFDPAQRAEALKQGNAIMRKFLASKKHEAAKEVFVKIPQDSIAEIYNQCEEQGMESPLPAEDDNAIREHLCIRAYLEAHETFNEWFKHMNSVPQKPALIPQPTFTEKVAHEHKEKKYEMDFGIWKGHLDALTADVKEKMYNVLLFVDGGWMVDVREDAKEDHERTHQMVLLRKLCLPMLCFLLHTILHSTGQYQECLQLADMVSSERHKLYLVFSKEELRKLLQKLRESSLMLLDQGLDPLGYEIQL
UniProt Q86U38: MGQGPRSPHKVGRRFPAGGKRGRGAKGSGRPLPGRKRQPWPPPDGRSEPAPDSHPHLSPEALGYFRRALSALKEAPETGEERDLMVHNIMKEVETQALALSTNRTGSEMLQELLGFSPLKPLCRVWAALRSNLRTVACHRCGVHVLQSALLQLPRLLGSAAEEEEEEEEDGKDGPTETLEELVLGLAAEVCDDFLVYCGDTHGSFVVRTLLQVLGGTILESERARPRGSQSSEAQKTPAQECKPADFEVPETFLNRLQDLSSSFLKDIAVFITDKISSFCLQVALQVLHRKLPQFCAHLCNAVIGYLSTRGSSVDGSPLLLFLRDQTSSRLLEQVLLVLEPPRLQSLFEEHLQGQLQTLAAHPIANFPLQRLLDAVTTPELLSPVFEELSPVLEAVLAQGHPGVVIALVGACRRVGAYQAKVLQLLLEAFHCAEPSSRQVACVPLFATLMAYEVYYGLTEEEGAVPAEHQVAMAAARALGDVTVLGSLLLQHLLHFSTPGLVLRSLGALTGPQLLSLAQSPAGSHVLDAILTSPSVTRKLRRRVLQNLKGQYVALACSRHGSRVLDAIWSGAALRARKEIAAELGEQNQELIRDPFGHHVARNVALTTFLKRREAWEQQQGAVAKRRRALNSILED
UniProt Q9NV35: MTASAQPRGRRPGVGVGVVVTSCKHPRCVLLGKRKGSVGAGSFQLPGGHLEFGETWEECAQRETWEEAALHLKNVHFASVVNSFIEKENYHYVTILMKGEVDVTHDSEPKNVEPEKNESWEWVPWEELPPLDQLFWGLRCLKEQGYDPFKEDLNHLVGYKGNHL
UniProt O75607: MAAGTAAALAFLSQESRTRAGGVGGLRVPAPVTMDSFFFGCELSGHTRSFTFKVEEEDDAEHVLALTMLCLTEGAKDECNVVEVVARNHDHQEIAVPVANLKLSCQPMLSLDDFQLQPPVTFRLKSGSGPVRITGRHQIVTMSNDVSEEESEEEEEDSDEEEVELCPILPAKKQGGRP
UniProt Q9Y3C1: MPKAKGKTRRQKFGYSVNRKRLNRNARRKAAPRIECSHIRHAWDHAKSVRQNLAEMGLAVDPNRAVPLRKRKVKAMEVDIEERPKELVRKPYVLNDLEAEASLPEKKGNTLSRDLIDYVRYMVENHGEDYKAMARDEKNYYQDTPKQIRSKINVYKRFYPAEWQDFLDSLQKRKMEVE
UniProt Q9UGY1: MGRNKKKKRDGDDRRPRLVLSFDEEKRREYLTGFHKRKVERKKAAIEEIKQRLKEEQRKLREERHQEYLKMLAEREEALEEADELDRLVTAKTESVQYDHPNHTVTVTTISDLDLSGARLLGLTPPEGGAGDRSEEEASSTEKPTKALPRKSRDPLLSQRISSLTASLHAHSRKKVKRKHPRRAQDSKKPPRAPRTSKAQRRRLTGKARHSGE
UniProt Q8TAT6: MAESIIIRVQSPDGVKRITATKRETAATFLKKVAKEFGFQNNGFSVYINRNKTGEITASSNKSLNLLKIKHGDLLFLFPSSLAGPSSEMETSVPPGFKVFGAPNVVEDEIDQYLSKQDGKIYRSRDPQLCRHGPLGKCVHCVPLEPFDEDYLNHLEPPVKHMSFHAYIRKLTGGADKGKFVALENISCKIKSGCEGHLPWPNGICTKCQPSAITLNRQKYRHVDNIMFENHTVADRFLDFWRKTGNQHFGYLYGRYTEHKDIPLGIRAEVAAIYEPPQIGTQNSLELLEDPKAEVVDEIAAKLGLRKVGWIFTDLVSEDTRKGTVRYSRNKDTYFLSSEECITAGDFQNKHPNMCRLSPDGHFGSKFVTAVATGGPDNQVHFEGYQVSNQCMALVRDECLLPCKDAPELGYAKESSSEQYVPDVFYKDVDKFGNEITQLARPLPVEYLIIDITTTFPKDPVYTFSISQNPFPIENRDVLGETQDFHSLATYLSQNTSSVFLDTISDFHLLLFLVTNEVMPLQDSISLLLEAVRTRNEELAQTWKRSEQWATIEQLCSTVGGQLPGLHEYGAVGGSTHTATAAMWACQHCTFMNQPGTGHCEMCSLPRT
UniProt Q8WTT2: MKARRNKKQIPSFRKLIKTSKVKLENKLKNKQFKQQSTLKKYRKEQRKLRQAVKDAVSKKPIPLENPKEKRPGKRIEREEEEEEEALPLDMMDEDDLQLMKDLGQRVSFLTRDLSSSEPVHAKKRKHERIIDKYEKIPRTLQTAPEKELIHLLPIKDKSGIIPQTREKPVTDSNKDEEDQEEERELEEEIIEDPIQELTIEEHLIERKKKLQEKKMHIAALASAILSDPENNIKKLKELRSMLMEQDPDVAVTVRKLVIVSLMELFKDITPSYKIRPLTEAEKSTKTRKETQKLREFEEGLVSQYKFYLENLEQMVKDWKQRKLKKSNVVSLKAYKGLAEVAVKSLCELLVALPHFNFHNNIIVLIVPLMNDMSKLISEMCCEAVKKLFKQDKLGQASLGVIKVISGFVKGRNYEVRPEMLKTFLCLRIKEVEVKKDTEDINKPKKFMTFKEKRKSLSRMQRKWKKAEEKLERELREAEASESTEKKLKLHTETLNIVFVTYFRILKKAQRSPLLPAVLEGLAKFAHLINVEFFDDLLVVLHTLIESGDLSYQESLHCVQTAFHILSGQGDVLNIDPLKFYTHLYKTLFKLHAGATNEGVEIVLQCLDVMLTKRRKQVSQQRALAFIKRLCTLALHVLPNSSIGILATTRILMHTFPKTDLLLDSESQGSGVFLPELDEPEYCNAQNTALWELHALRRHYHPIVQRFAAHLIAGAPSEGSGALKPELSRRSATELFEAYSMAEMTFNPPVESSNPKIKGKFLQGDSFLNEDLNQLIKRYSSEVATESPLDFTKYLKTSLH
UniProt Q13287: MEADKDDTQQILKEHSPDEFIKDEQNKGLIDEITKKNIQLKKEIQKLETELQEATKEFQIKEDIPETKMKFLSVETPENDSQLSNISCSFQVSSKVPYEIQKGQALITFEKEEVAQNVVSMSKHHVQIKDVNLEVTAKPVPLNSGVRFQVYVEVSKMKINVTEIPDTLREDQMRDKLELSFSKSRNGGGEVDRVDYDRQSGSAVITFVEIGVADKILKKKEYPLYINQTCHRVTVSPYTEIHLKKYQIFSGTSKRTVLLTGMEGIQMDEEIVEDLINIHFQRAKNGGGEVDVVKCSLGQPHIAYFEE
UniProt Q9Y639: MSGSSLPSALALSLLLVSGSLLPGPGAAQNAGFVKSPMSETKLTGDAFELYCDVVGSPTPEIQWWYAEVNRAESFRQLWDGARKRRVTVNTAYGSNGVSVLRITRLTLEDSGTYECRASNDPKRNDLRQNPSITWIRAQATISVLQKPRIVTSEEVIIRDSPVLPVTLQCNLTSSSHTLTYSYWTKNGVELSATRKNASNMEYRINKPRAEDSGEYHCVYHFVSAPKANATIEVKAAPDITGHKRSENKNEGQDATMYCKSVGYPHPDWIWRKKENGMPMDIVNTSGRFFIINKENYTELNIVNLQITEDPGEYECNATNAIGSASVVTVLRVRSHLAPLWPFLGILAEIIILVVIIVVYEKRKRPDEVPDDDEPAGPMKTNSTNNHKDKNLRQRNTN
UniProt Q9HBL8: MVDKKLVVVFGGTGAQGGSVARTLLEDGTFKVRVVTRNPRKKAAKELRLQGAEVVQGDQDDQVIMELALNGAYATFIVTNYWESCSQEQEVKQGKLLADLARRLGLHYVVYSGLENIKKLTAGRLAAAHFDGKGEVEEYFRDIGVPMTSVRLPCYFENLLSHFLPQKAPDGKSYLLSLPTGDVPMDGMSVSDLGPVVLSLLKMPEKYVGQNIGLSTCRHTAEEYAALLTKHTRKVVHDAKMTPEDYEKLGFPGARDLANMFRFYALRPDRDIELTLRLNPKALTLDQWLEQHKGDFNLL
UniProt O15118: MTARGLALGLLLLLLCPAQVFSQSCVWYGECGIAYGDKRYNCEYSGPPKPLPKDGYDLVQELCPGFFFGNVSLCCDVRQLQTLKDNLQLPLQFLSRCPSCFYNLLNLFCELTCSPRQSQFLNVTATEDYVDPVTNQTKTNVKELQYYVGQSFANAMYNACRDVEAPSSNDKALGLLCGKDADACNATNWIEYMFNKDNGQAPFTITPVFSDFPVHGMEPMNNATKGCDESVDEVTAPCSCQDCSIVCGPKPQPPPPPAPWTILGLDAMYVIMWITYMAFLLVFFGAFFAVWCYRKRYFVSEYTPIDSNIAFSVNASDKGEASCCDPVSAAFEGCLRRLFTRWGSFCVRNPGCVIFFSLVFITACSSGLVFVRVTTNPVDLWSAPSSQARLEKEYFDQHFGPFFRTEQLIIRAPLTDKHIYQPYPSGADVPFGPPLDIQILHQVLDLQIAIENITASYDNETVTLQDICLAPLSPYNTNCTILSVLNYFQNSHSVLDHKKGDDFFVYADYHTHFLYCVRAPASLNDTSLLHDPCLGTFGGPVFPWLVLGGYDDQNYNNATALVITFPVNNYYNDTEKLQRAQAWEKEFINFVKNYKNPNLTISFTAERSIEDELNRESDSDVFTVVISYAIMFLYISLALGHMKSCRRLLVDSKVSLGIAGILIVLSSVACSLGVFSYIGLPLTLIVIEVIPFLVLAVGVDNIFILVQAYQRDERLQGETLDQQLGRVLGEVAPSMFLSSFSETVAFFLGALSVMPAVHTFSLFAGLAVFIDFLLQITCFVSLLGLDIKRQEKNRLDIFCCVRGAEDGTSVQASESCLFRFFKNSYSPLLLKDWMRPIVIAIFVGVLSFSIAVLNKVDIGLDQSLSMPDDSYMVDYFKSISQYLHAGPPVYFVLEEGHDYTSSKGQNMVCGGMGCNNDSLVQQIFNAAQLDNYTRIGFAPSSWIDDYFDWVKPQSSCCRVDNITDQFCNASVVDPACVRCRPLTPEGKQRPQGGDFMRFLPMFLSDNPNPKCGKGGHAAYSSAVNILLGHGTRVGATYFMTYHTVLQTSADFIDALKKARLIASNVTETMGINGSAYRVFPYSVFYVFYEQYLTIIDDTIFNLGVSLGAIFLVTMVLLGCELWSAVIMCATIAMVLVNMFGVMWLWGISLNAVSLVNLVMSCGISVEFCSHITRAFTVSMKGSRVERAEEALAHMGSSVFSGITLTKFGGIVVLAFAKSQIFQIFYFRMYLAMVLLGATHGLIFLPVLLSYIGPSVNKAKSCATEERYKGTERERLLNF
UniProt A8MXV4: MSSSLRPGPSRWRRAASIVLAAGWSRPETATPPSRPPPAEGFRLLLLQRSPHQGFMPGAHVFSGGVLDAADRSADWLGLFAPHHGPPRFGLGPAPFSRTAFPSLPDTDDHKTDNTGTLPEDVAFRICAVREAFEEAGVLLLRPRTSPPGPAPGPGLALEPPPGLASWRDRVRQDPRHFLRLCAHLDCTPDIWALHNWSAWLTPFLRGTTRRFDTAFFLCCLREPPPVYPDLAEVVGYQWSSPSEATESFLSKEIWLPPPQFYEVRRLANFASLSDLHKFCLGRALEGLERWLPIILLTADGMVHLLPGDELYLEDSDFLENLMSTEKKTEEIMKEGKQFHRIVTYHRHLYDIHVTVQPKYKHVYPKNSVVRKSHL
UniProt O95989: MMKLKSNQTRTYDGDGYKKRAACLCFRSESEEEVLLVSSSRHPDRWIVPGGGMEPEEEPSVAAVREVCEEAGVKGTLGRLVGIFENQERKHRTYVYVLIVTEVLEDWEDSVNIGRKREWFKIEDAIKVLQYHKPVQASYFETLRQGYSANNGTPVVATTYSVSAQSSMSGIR

pictilisib = compound: CS(=O)(=O)N1CCN(Cc2cc3nc(-c4cccc5[nH]ncc45)nc(N4CCOCC4)c3s2)CC1 [pictilisib]
How it was run: as §1

crizotinib = compound: C[C@@H](Oc1cc(-c2cnn(C3CCNCC3)c2)cnc1N)c1c(Cl)ccc(F)c1Cl [crizotinib]
How it was run: as §1

[1] = compound: C[C@H](C1=CC=C(C=C1)C(=O)NC2=C3C=CNC3=NC=C2)N
How it was run: as §1

duvelisib = compound: C[C@H](Nc1ncnc2nc[nH]c12)c1cc2cccc(Cl)c2c(=O)n1-c1ccccc1 [duvelisib]
How it was run: as §1

gandotinib = compound: Cc1cc(Nc2cc(CN3CCOCC3)c3nc(C)c(Cc4ccc(Cl)cc4F)n3n2)n[nH]1 [gandotinib]
How it was run: as §1

tozasertib = compound: Cc1cc(Nc2cc(N3CCN(C)CC3)nc(Sc3ccc(NC(=O)C4CC4)cc3)n2)n[nH]1 [tozasertib]
How it was run: as §1

doramapimod = compound: Cc1ccc(-n2nc(C(C)(C)C)cc2NC(=O)Nc2ccc(OCCN3CCOCC3)c3ccccc23)cc1 [doramapimod]
How it was run: as §1

bafetinib = compound: Cc1ccc(NC(=O)c2ccc(CN3CC[C@H](N(C)C)C3)c(C(F)(F)F)c2)cc1Nc1nccc(-c2cncnc2)n1 [bafetinib]
How it was run: as §1

[2] = compound: Cc1cccc(CC(=O)N2CCc3c2ccc(-c2cn(C)c4ncnc(N)c24)c3F)n1
How it was run: as §1

Measured: log2 fold change

NUP107 (UniProt P57740)
inactive: lapatinib 0.019 | pictilisib -0.064 | crizotinib -0.048 | [1] -0.046 | duvelisib -0.012 | gandotinib -0.028 | tozasertib 0.003 | doramapimod 0.038 | bafetinib -0.038 | [2] 0.095

NUDT5 (UniProt Q9UKK9)
inactive: lapatinib 0.003 | pictilisib -0.036 | crizotinib 0.007 | duvelisib 0.051 | gandotinib 0.211 | tozasertib -0.018 | doramapimod -0.015 | bafetinib -0.016 | [2] 0.212
active: [1] -0.299

NOP9 (UniProt Q86U38)
inactive: lapatinib 0.021 | pictilisib -0.039 | crizotinib -0.138 | [1] 0.178 | duvelisib 0.091 | gandotinib -0.118 | tozasertib 0.206 | doramapimod 0.039 | bafetinib -0.06 | [2] -0.11

NUDT15 (UniProt Q9NV35)
inactive: lapatinib 0.001 | pictilisib 0.053 | crizotinib 0.012 | [1] -0.127 | duvelisib 0.006 | gandotinib 0.016 | tozasertib 0.056 | doramapimod 0.014 | bafetinib -0.041 | [2] 0.05

NME3 (UniProt Q13232)
inactive: lapatinib 0.007 | pictilisib -0.047 | crizotinib -0.036 | [1] -0.074 | duvelisib -0.022 | gandotinib -0.049 | tozasertib -0.054 | doramapimod 0.006 | bafetinib 0.048 | [2] 0.098

NPM3 (UniProt O75607)
inactive: lapatinib 0.087 | pictilisib 0.053 | crizotinib -0.02 | [1] -0.201 | duvelisib 0.014 | gandotinib 0.068 | tozasertib -0.036 | doramapimod 0.027 | bafetinib 0.04 | [2] 0.164

NOP16 (UniProt Q9Y3C1)
inactive: lapatinib 0.006 | pictilisib -0.035 | crizotinib 0.002 | [1] 0.048 | duvelisib 0.045 | gandotinib -0.097 | tozasertib 0.035 | doramapimod -0.005 | bafetinib -0.026 | [2] -0.085

NUFIP2 (UniProt Q7Z417)
inactive: lapatinib 0.015 | pictilisib -0.025 | crizotinib 0.01 | [1] -0.01 | duvelisib -0.049 | gandotinib 0.022 | tozasertib -0.042 | doramapimod -0.021 | bafetinib 0.064 | [2] -0.03

NMD3 (UniProt Q96D46)
inactive: lapatinib -0.018 | pictilisib 0.019 | crizotinib -0.027 | [1] -0.033 | duvelisib 0.008 | gandotinib 0.019 | tozasertib -0.037 | doramapimod 0.008 | bafetinib -0.002 | [2] 0.028

NUDC (UniProt Q9Y266)
inactive: lapatinib -0.01 | pictilisib 0.023 | crizotinib 0.051 | [1] 0.047 | duvelisib 0.021 | gandotinib -0.027 | tozasertib 0.01 | doramapimod -0.016 | bafetinib -0.007 | [2] -0.061

NUP153 (UniProt P49790)
inactive: lapatinib 0.026 | pictilisib -0.005 | crizotinib -0.011 | [1] 0.014 | duvelisib 0.002 | gandotinib -0.041 | tozasertib -0.016 | doramapimod 0.036 | bafetinib -0.024 | [2] 0.018

NUBP1 (UniProt P53384)
inactive: lapatinib -0.054 | pictilisib -0.036 | crizotinib -0.02 | [1] 0.033 | duvelisib -0.004 | gandotinib -0.012 | tozasertib 0.007 | doramapimod 0.01 | bafetinib 0.017 | [2] -0.015

NOL12 (UniProt Q9UGY1)
inactive: lapatinib -0.009 | pictilisib -0.044 | crizotinib -0.05 | [1] -0.002 | duvelisib 0.011 | gandotinib 0.012 | tozasertib 0.034 | doramapimod -0.07 | bafetinib 0.05 | [2] -0.031

NPLOC4 isoform 2 (UniProt Q8TAT6)
inactive: lapatinib 0.022 | pictilisib 0.003 | crizotinib -0.023 | [1] -0.087 | duvelisib 0.01 | gandotinib 0.046 | tozasertib -0.003 | doramapimod 0.056 | bafetinib -0.019 | [2] 0.007

NOC3L (UniProt Q8WTT2)
inactive: lapatinib -0.011 | pictilisib -0.003 | crizotinib -0.066 | [1] -0.052 | duvelisib -0.016 | gandotinib -0.02 | tozasertib -0.041 | doramapimod -0.004 | bafetinib -0.048 | [2] 0.047

NMT2 (UniProt O60551)
inactive: lapatinib -0.022 | pictilisib -0.01 | crizotinib -0.004 | [1] -0.017 | duvelisib 0.028 | gandotinib 0.007 | tozasertib 0.012 | doramapimod 0.023 | bafetinib 0.015 | [2] 0.052

NMI (UniProt Q13287)
inactive: lapatinib -0.021 | pictilisib -0.022 | crizotinib 0.015 | [1] 0.006 | duvelisib -0.005 | gandotinib -0.006 | tozasertib 0.007 | doramapimod -0.03 | bafetinib -0.001 | [2] -0.041

Quoted at random: 2 entries already listed
NUP153 (UniProt P49790)
inactive: lapatinib 0.026 | pictilisib -0.005 | crizotinib -0.011 | [1] 0.014 | duvelisib 0.002 | gandotinib -0.041 | tozasertib -0.016 | doramapimod 0.036 | bafetinib -0.024 | [2] 0.018

NOC3L (UniProt Q8WTT2)
inactive: lapatinib -0.011 | pictilisib -0.003 | crizotinib -0.066 | [1] -0.052 | duvelisib -0.016 | gandotinib -0.02 | tozasertib -0.041 | doramapimod -0.004 | bafetinib -0.048 | [2] 0.047

Continuation.

NRDC isoform 2 (UniProt O43847)
inactive: lapatinib -0.004 | pictilisib -0.029 | crizotinib -0.009 | [1] -0.007 | duvelisib 0.015 | gandotinib -0.065 | tozasertib -0.001 | doramapimod -0.024 | bafetinib -0.027 | [2] -0.01

NUDT9 (UniProt Q9BW91)
inactive: lapatinib -0.016 | pictilisib 0 | crizotinib 0.035 | [1] 0.002 | duvelisib 0.014 | gandotinib 0.04 | tozasertib -0.017 | doramapimod -0.019 | bafetinib 0.015 | [2] 0.023

NRBP2 (UniProt Q9NSY0)
inactive: lapatinib 0.023 | pictilisib 0 | crizotinib -0.014 | [1] 0 | duvelisib -0.029 | gandotinib 0.019 | tozasertib -0.049 | doramapimod 0.054 | bafetinib -0.166 | [2] 0.018

NNT (UniProt Q13423)
inactive: lapatinib -0.047 | pictilisib -0.046 | crizotinib 0.03 | [1] 0.013 | duvelisib 0.039 | tozasertib -0.014 | doramapimod 0.011 | bafetinib -0.006 | [2] 0.003
active: gandotinib -0.445

NPTN (UniProt Q9Y639)
inactive: lapatinib -0.057 | pictilisib -0.045 | crizotinib -0.058 | [1] -0.011 | duvelisib 0.049 | gandotinib 0.003 | tozasertib 0.007 | doramapimod 0.056 | bafetinib -0.029 | [2] 0.011

NOP53 (UniProt Q9NZM5)
inactive: lapatinib -0.011 | pictilisib 0.085 | crizotinib -0.013 | [1] 0.112 | duvelisib 0.036 | gandotinib -0.053 | tozasertib 0.118 | doramapimod 0.008 | bafetinib 0.03 | [2] -0.121

NMRAL1 (UniProt Q9HBL8)
active: [1] 0.695
inactive: lapatinib -0.003 | pictilisib 0.105 | crizotinib -0.017 | duvelisib 0.08 | gandotinib -0.01 | tozasertib -0.051 | doramapimod 0.036 | bafetinib 0.005 | [2] 0.011

NOA1 (UniProt Q8NC60)
inactive: lapatinib -0.043 | pictilisib 0.032 | crizotinib -0.052 | [1] -0.282 | duvelisib 0.014 | gandotinib 0.039 | tozasertib -0.034 | doramapimod 0.021 | bafetinib -0.221 | [2] 0.167

NT5DC1 (UniProt Q5TFE4)
inactive: lapatinib 0.032 | pictilisib 0.004 | crizotinib -0.002 | [1] -0.017 | duvelisib -0.019 | gandotinib 0.037 | tozasertib -0.022 | doramapimod 0 | bafetinib 0.027 | [2] -0.028

NPC1 (UniProt O15118)
inactive: lapatinib 0 | pictilisib 0.006 | crizotinib 0 | [1] -0.051 | duvelisib 0.051 | gandotinib 0.034 | tozasertib 0.006 | doramapimod 0.022 | bafetinib -0.035 | [2] 0.02

NUDT19 (UniProt A8MXV4)
inactive: lapatinib 0.016 | pictilisib -0.009 | crizotinib -0.015 | [1] -0.004 | duvelisib 0.012 | gandotinib -0.012 | tozasertib -0.05 | doramapimod -0.029 | bafetinib 0.003 | [2] -0.05

NQO1 (UniProt P15559)
active: doramapimod -0.333 | [2] 0.262
inactive: lapatinib -0.055 | pictilisib -0.048 | crizotinib -0.04 | [1] -0.074 | duvelisib 0.012 | gandotinib 0.009 | tozasertib 0.022 | bafetinib -0.023

NUDT3 (UniProt O95989)
inactive: lapatinib -0.021 | pictilisib 0.04 | crizotinib 0.031 | [1] -0.003 | duvelisib 0.002 | gandotinib -0.037 | tozasertib 0.004 | doramapimod 0.091 | bafetinib 0.006 | [2] 0.015
